Data published in the supplement of paper PMC11542785.
Counter-ions that a name gives are not always drawn. This is one part of the list. Single values are uncertain, as repeats are few or missing. Square brackets hold non-standard residues; d marks the D form. Peptide text beside a SMILES is read from it. pGlu = O=C1CC[C@@H](C(=O)O)N1; Thz = O=C(O)[C@@H]1CSCN1

Test system: Drosophila melanogaster DPAGT1 (Alg7) RNAi eye model
Test: eye size Z-score vs DMSO-treated DPAGT1 model flies; higher = larger eye (suppression of DPAGT1 phenotype)
Conditions: 5 uM

SMILES | eye size Z-score | eye size Z-score (female)
CN1CCCN(C(c2ccccc2)c2ccc(Cl)cc2)CC1 (centres undefined) [Homochlorcyclizine dihydrochloride] | 0.13 | 
C[C@@H]1C[C@H]2[C@@H]3CCC4=CC(=O)C=C[C@]4(C)[C@@]3(Cl)[C@@H](O)C[C@]2(C)[C@@]1(OC(=O)c1ccco1)C(=O)CCl [Mometasone furoate] | 0.19 | 
CCOc1ccc2nc(S(N)(=O)=O)sc2c1 [Ethoxzolamide] | -0.1 | 
c1coc(CNc2ncnc3[nH]cnc23)c1 [Kinetin] | 0.21 | 
C[C@]12CCC3=C4CCC(=O)C=C4CC[C@H]3[C@@H]1CC[C@@]2(O)CC#N [Dienogest] | 0.33 | 
CCCCc1ccc2[nH]c(NC(=O)OC)nc2c1 [Parbendazole] | 0.57 | 
O=c1oc2cc(O)ccc2s1 [Tioxolone] | 1 | 
C/C(=C\C(=O)OCCCCCCCCC(=O)O)C[C@@H]1OC[C@H](C[C@@H]2O[C@H]2[C@@H](C)[C@H](C)O)[C@@H](O)[C@H]1O [Mupirocin] | 0.14 | 
CCc1cccc(CC)c1NC(=O)CN(CC(=O)O)CC(=O)O [Etifenin] | -0.08 | 
CN/C(=N\CCSCc1nc[nH]c1C)NC#N [Cimetidine] | 0.96 | 
O=C(O)c1cc(/N=N/c2ccc(S(=O)(=O)Nc3ccccn3)cc2)ccc1O [Sulfasalazine] | 1.05 | 
CN1CCCN=C1/C=C/c1cccc(O)c1 [Oxantel pamoate] | -0.24 | 
CC(N)CCCC(C)(C)O (centres undefined) [Heptaminol hydrochloride] | 1.54 | 
C[C@@H](O[C@H]1OCCN(Cc2n[nH]c(=O)[nH]2)[C@H]1c1ccc(F)cc1)c1cc(C(F)(F)F)cc(C(F)(F)F)c1 [Aprepitant] | 0.67 | 
Cc1cn(-c2cc(NC(=O)c3ccc(C)c(Nc4nccc(-c5cccnc5)n4)c3)cc(C(F)(F)F)c2)cn1 [Nilotinib] | 0.32 | 
CC1(C)S[C@@H]2[C@H](NC(=O)C3(N)CCCCC3)C(=O)N2[C@H]1C(=O)O [Cyclacillin] | -0.27 | 
CC=CC1=C(C(=O)O)N2C(=O)[C@@H](NC(=O)[C@H](N)c3ccc(O)cc3)[C@H]2SC1 [Cefprozil] | -0.8 | 
Cc1cc2c(s1)Nc1ccccc1N=C2N1CCN(C)CC1 [Olanzapine] | -0.27 | 
Cc1c(O)c(=O)n(-c2ccccc2)n1C [Antipyrine, 4-hydroxy] | 1.51 | 
CC(C)OC(=O)C(C)(C)Oc1ccc(C(=O)c2ccc(Cl)cc2)cc1 [Fenofibrate] | -0.16 | 
NC[C@@H]1O[C@@H](O[C@H]2[C@H](O)[C@@H](O[C@H]3O[C@H](CO)[C@@H](O)[C@H](N)[C@H]3O)[C@H](N)C[C@@H]2N)[C@@H](O)[C@H](O)[C@H]1O [Kanamycin A sulfate] | -0.56 | 
COC(=O)C1=C(C#N)NC(C)=C(C(=O)OC(C)C)C1c1cccc([N+](=O)[O-])c1 (centres undefined) [Nilvadipine] | -0.35 | 
CC1CC(OC(=O)c2ccccc2O)CC(C)(C)C1 (centres undefined) [Homosalate] | 1.17 | 
C[C@H](CCC(=O)O)[C@H]1CC[C@H]2[C@@H]3[C@@H](O)C[C@@H]4C[C@H](O)CC[C@]4(C)[C@H]3CC[C@]12C [Urosiol] |  | 0.25
C#C[C@]1(O)CC[C@H]2[C@@H]3CCC4=CCCC[C@@H]4[C@H]3CC[C@@]21C [Lynestrenol] | 0.22 | 

Ordered by formula weight (largest number first): part of the list above.
SMILES | eye size Z-score | eye size Z-score (female)
C[C@@H]1C[C@H]2[C@@H]3CCC4=CC(=O)C=C[C@]4(C)[C@@]3(Cl)[C@@H](O)C[C@]2(C)[C@@]1(OC(=O)c1ccco1)C(=O)CCl [Mometasone furoate] | 0.19 | 
C[C@]12CCC3=C4CCC(=O)C=C4CC[C@H]3[C@@H]1CC[C@@]2(O)CC#N [Dienogest] | 0.33 | 
CCOc1ccc2nc(S(N)(=O)=O)sc2c1 [Ethoxzolamide] | -0.1 | 

Following part:

SMILES | eye size Z-score | eye size Z-score (female)
O=C(CCCN1CCN(c2ccccn2)CC1)c1ccc(F)cc1 [Azaperone] |  | 0.19
Nc1c2ccccc2nc2ccccc12 [Aminacrine] | 0.2 | 
CN1CCC(=C2c3ccccc3Sc3ccccc32)CC1 [Pimethixene maleate] | 0.67 | 
Cc1ccc(=O)n(-c2ccccc2)c1 [Pirfenidone] | 0.54 | 
N[C@@H](Cc1cc(I)c(Oc2ccc(O)c(I)c2)c(I)c1)C(=O)O [Liothyronine] | 0.58 | 
CN1CCN(C(c2ccccc2)c2ccccc2)CC1 [Cyclizine hydrochloride] |  | 0.2
OCCN(CCO)c1nc(N2CCCCC2)c2nc(N(CCO)CCO)nc(N3CCCCC3)c2n1 [Dipyridamole] | -0.16 | 
CN(c1nccc(=O)[nH]1)C1CCN(c2nc3ccccc3n2Cc2ccc(F)cc2)CC1 [Mizolastine] | -0.41 | 
O=C(O)c1ccccc1C(=O)Nc1ccc(S(=O)(=O)Nc2nccs2)cc1 [Phthalylsulfathiazole] | 0.23 | 
CC(=O)OC(C)OC(=O)C(C)c1ccc(-c2ccccc2)c(F)c1 (centres undefined) [Flurbiprofen axetil] | 0.86 | 
CO[C@@H]1[C@@H](O[C@@H]2O[C@H](C)[C@@H](O[C@H]3C[C@@](C)(O)[C@@H](OC(=O)CC(C)C)[C@H](C)O3)[C@H](N(C)C)[C@H]2O)[C@@H](CC=O)C[C@@H](C)[C@@H](O)/C=C/C=C/C[C@@H](C)OC(=O)C[C@H]1OC(C)=O [Josamycin] | 0.91 | 
CC(=O)CC(c1ccccc1)c1c(O)c2ccccc2oc1=O (centres undefined) [Warfarin] | -0.13 | 
CCC(=O)O[C@@H]1CC(=O)O[C@H](C)C/C=C/C=C/[C@H](O)[C@H](C)C[C@H](CC=O)[C@H](O[C@@H]2O[C@H](C)[C@@H](O[C@H]3C[C@@](C)(O)[C@@H](OC(=O)CC)[C@H](C)O3)[C@H](N(C)C)[C@H]2O)[C@H]1OC [Midecamycin] | 0.5 | 
CCN(CC)CC(=O)Nc1c(C)cccc1C [Lidocaine hydrochloride] | 0.62 | 
CC(=O)OCC(=O)[C@@]12OC(C)(C)O[C@@H]1C[C@H]1[C@@H]3C[C@H](F)C4=CC(=O)C=C[C@]4(C)[C@@]3(F)[C@@H](O)C[C@@]12C [Fluocinonide] | 0.45 | 
c1ccc2c(CC3=NCCN3)cccc2c1 [Naphazoline hydrochloride] | 1.35 | 
C=CC1=C(C(=O)O)N2C(=O)[C@@H](NC(=O)/C(=N\O)c3csc(N)n3)[C@H]2SC1 [Cefdinir] | 0.31 | 
CC(=O)NS(=O)(=O)c1ccc(N)cc1 [Sulfacetamide sodic hydrate] | 1.25 | 
Cc1cn([C@H]2C=C[C@@H](CO)O2)c(=O)[nH]c1=O [Stavudine] | 0.75 | 
COc1cccc2c1C(=O)c1c(O)c3c(c(O)c1C2=O)C[C@@](O)(C(C)=O)C[C@@H]3O[C@H]1C[C@H](N)[C@H](O)[C@H](C)O1 [Daunorubicin hydrochloride] | 0.34 | 
Cc1c(NC(=O)c2cccnc2)c(=O)n(-c2ccccc2)n1C [Nifenazone] | 0.41 | 
CS(=O)(=O)OCCCCOS(C)(=O)=O [Busulfan] | 0.13 | 
N[C@@H](Cc1c[nH]c2ccccc12)C(=O)O [L-Tryptophan] | 0.08 | 
CO/N=C(\C(=O)N[C@@H]1C(=O)N2C(C(=O)[O-])=C(C[n+]3cccc4c3CCC4)CS[C@H]12)c1csc(N)n1 [Cefpirome sulfate] | -0.64 | 
NS(=O)(=O)c1cc2c(cc1C(F)(F)F)NCNS2(=O)=O [Hydroflumethiazide] | 1.25 | 

SMILES | eye size Z-score | eye size Z-score (female)
CC(C)NC[C@@H](O)COc1ccc(CC(N)=O)cc1 [(R,+) Atenolol] | 1.26 | 
CC[C@@H]1C(=O)OC[C@@H]1Cc1cncn1C [Pilocarpine nitrate] | -0.5 | 
CN1CCN(CC(=O)N2c3ccccc3C(=O)Nc3cccnc32)CC1 [Pirenzepine dihydrochloride] | -0.86 | 
CN(CCCCCCCCCCN(C)C(=O)Oc1cccc([N+](C)(C)C)c1)C(=O)Oc1cccc([N+](C)(C)C)c1 [Demecarium bromide] | -0.35 | 
CC(=O)N(CC(O)CO)c1c(I)c(C(=O)NCC(O)CO)c(I)c(C(=O)NCC(O)CO)c1I (centres undefined) [Iohexol] | 1.13 | 
COC(=O)Nc1nc2cc(Sc3ccccc3)ccc2[nH]1 [Fenbendazole] | 0.23 | 
Cn1c(=O)c2c(ncn2CC2OCCO2)n(C)c1=O [Doxofylline] | -0.79 | 
CCOc1nc2cccc(C(=O)O)c2n1Cc1ccc(-c2ccccc2-c2nnn[nH]2)cc1 [Candesartan] | 0.56 | 
CCCCNC(=N)NC(=N)N [Buformin] | -0.89 | 
C[C@@](Cc1ccc(O)c(O)c1)(NN)C(=O)O [Carbidopa] | -1.36 | 
Nc1ncnc2c1ncn2[C@@H]1O[C@H](CO)[C@@H](O)[C@@H]1O [Vidarabine] | -0.64 | 
CC(=O)OC[C@H]1O[C@@H]([S-])[C@H](OC(C)=O)[C@@H](OC(C)=O)[C@@H]1OC(C)=O.CCP(CC)CC.[Au+] [Auranofin] | -0.46 | 
COc1cc(Nc2c(C#N)cnc3cc(OCCCN4CCN(C)CC4)c(OC)cc23)c(Cl)cc1Cl [Bosutinib] | 0.2 | 
CCCCc1oc2ccc(NS(C)(=O)=O)cc2c1C(=O)c1ccc(OCCCN(CCCC)CCCC)cc1 [Dronedarone hydrochloride] | -0.13 | 
CCC1(c2ccccc2)C(=O)NCNC1=O [Primidone] | 0.73 | 
CN(C)CCC(c1ccc(Br)cc1)c1ccccn1 (centres undefined) [Brompheniramine maleate] | -0.19 | 
O=C1CC[C@@H](C(=O)N2CSC[C@H]2C(=O)O)N1 [Pidotimod] ([pGlu]-[Thz]-OH) | -0.72 | 
c1ccc(-c2ccc(C(c3ccccc3)n3ccnc3)cc2)cc1 (centres undefined) [Bifonazole] | -0.76 | 
Oc1c(Cl)cc(Cl)c2cccnc12 [Chloroxine] | -0.1 | 
O=C(c1ccc(F)cc1)C1CCN(CCn2c(=O)[nH]c3ccccc3c2=O)CC1 [Ketanserin tartrate hydrate] | 0.99 | 
CCN(CC)C(=O)c1ccc(O)c(OC)c1 [Ethamivan] | 1.97 | 
Cc1[nH]cnc1CN1CCc2c(c3ccccc3n2C)C1=O [Alosetron hydrochloride] | -0.2 | 
O=C(Cn1c(=O)sc2ccc(Cl)cc21)N1CCN(CCO)CC1 [Tiaramide Hydrochloride] | 0.12 | 
Cc1cc2nc3c(=O)[nH]c(=O)nc-3n(C[C@H](O)[C@H](O)[C@H](O)CO)c2cc1C [Riboflavine] | 1.54 | 
